# Whole data set: some 33,000 sequences, median “E-score (-0.5 to 0.5)” near -8e-05, cut for the highest 2% near 0.23. Some of the results follow.
# Target: T1, Nrg2 (UniProt P38082)
# T1 sequence: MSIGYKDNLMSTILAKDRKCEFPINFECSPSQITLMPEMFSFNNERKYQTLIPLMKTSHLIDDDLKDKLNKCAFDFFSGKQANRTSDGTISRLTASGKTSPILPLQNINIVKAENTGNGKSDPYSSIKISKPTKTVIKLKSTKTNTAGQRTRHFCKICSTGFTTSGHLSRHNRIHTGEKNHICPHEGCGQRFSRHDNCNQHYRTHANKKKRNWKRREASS
# Experiment: PBM E-score (8-mer binding enrichment) (E-score (-0.5 to 0.5)); higher = stronger / more preferred TF binding
# Conditions: protein concentration: 100 nM; construct: GST-full length
# Procedure, shortened: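 E-scores (a modified Wilcoxon-Mann-Whitney statistic) were assigned by the Universal PBM Analysis Suite to every ungapped eight-base word pooled with its reverse complement. The input came from universal all-10-mer Agilent arrays made double-stranded by primer extension and probed with GST-tagged yeast transcription factors at about 100-200 nM. Fluorescent anti-GST detected bound protein, and masliner normalised the scans.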
row,Sequence,PBM E-score
1,GCTCAAGA,-0.177
2,CCATTGCC,0.0289
3,CCGAATCC,0.177
4,CCGATGAG,-0.0295
5,ACGCTAAT,-0.0638
6,ATCTCAAT,0.0327
7,ACAGTGCT,0.0642
8,CAGGACGG,-0.166
9,CTCCTTAA,-0.0313
10,GGCTGGAC,-0.233
11,AGTCACTG,-0.0745
12,ATTTAAAC,0.128
13,ATATGTCG,-0.00144
14,ACGAACTC,0.0595
15,GGTGGTGA,0.0143
16,CGTGTTCA,-0.0605
17,AATATACA,0.0984
18,TAACCTTA,-0.0909
19,ATGTCCCC,0.116
20,AGTCCCCC,-0.341
21,AGAAGAAT,-0.147
22,CACTCACC,-0.0529
23,AAGGCTCT,-0.154
24,ATTACTTC,-0.152
25,CCTTTGGA,-0.0627

row,Sequence,PBM E-score
1,CTCTTAAA,0.0988
2,CCTAATCA,0.219
3,AGATCCCC,0.00146
4,AGGATAGA,-0.00758
5,CTTATATC,0.155
6,AGCCCATG,0.0226
7,AGTCTCGG,-0.0965
8,ATGGCATA,0.175
9,CGACTATA,0.0549
10,ACACACGA,0.0725
11,AGCCCTAA,-0.156
12,CTATCCAC,0.0342
13,ACTGGATC,0.0174
14,CAGATCAG,0.194
15,CGCCACTC,0.0149
16,ATACTGCA,0.0914
17,AAAGCGCC,0.0742
18,AGATAATA,0.218
19,AAATGAAT,0.0707
20,CGTTCCTA,-0.0887
21,AAACGTGG,-0.209
22,AGAGAAAT,0.0887
23,GAGGTGCA,0.0493
24,ACGACTAC,-0.143
25,GCTGTGAC,-0.108

row,Sequence,PBM E-score
1,ATCCTCCA,-0.0483
2,TCTGTTCA,0.0444
3,CTATAGGA,-0.0776
4,ACACCCCA,-0.0209
5,CAACAGTG,0.0298
6,CTACTACA,0.156
7,GAATTATA,0.0673
8,CGATTGAG,0.0149
9,ACTATGAG,-0.0885
10,GGAAGAAC,0.0612
11,AATGTCGA,0.2
12,AGGAGTCA,-0.0173
13,CGACGACA,-0.0583
14,CGTTCGAG,0.062
15,ACCACGGC,-0.205
16,CAATTGTC,0.129
17,ACACTACG,0.0467
18,ATCTCGGA,0.0651
19,GCATTGTA,-0.0343
20,GACTTATA,0.0597
21,AGTGTCGA,-0.0688
22,TTCATAAA,0.0298
23,GGCGACGA,-0.0822
24,CGGGCTTC,-0.163
25,ACAGGAAC,0.0795

row,Sequence,PBM E-score
1,AAATGCGA,0.0934
2,ACGTGGCA,-0.182
3,ACCCACGG,-0.162
4,AGGTTGTA,0.113
5,CCGCCTCG,0.0861
6,CACAGAAG,-0.00398
7,ACGATATA,-0.0452
8,CCTCCAAC,0.12
9,TCATCCGA,0.135
10,CCGACGCG,-0.0534
11,TAGCAGCA,-0.0727
12,ATATAAGC,0.132
13,TAATGGGA,0.00808
14,ACATGCTC,0.00619
15,CCGTGCCA,-0.0925
16,GGCAAAAC,0.00304
17,CACGAAAC,0.0169
18,GCAATACC,0.176
19,GCGACCTA,0.104
20,AGGACAAC,0.0578
21,GCTGGTGA,0.0829
22,CCTAAGCG,-0.0608
23,GAAATTTA,0.0953
24,ATAAAAGG,-0.128
25,GGAAAGAC,-0.148

row,Sequence,PBM E-score
1,TCTATTAA,0.0135
2,AGTCCAAG,-0.0885
3,CGCAATAA,0.211
4,CATAACGA,0.157
5,TAGTGCAA,0.16
6,CTTGCGGA,-0.0647
7,ATGTGTGC,-0.0286
8,ACGTAACA,-0.0832
9,ATCTAAGA,-0.0394
10,ACGGCCGT,0.199
11,AAGGGAAC,0.0244
12,GGACCGAA,0.132
13,ATGACAGA,0.0824
14,ATTACAGG,0.312
15,ACATATAA,0.211
16,AACTACGT,-0.0603
17,GTTAGCCA,-0.00235
18,GCCGGCAC,0.118
19,GGATGCAC,-0.0861
20,ATTCGAAA,0.203
21,AGTTGGTC,0.0852
22,GGGGCCAC,-0.0958
23,CAACAGCG,-0.148
24,CGGAGGAG,-0.291
25,ACGCTCGG,0.0526

row,Sequence,PBM E-score
1,AACGCCCT,-0.0707
2,CTTAAGTC,-0.0597
3,GAGGGACC,0.0355
4,CAAATCGC,-0.053
5,AAAACGAT,0.106
6,CAAGGAGA,-0.19
7,ATTATACA,-0.00719
8,AGCGACAT,0.0214
9,CCGAACCG,-0.0765
10,ACCTTTAC,-0.0214
11,GGCGGTGA,-0.102
12,GCAGTCGA,-0.0311
13,ACGGCTAA,0.184
14,TATCAACA,0.0479
15,CGCGCCCA,0.129
16,TAACTTAA,0.175
17,GAGACAAA,-0.091
18,CTTAATAA,0.194
19,AACAGTGC,0.0267
20,CACGAGTG,-0.114
21,GAAATAAC,0.126
22,ACAGAAAG,0.104
23,AGAGTGTC,0.211
24,CTCAAAGA,-0.102
25,GTATAGTA,0.0278

row,Sequence,PBM E-score
1,CAGGTCCC,0.135
2,AGCACATG,0.209
3,ATATGCAT,0.0295
4,AGTTCAGC,-0.107
5,ATGAAGTA,0.0961
6,TAAAAATA,0.0993
7,AATCTCGT,0.055
8,CCTCACAA,0.073
9,GAATATAC,0.0689
10,GTCGTCAA,0.00047
11,CGATTGGA,-0.0316
12,ATATCTTG,0.0388
13,ACTATAAA,0.118
14,GGGCACTA,0.00928
15,AATCGACG,0.0662
16,CAAGGACA,-0.147
17,AACAACAG,-0.0488
18,CTGGTAGC,-0.0378
19,CATAGTCG,-0.0054
20,ACCGGACG,-0.0766
21,ACCCTCCG,-0.0767
22,AAGAATGC,0.0568
23,CGTATTGA,0.0915
24,GTGGTAAC,-0.0324
25,AGCGCTTG,-0.00848

row,Sequence,PBM E-score
1,ATATGGAA,0.0638
2,CGTCAAAA,0.144
3,AAAATGGA,0.308
4,CTTCAAAA,0.0401
5,CAGTCAGC,-0.0385
6,CATGTACG,0.128
7,GAATCGAA,0.0974
8,ACTCAATA,0.119
9,GACCGACA,0.0416
10,GCAATAAC,0.0808
11,GCTTTATA,-0.102
12,AATCGTAC,0.0882
13,AATAGGAC,0.0448
14,ATAGTATA,0.107
15,CAGCGTTC,0.0488
16,GCATGGAA,0.12
17,AATGTATA,0.0937
18,GACCGAGC,-0.0794
19,ACTACTCT,0.0608
20,ACTGGACA,-0.0201
21,ACGTGACA,-0.0483
22,AGAAACCT,-0.00411
23,GTCCGTCA,0.00645
24,AGCGTCTA,-0.121
25,ACACCGAA,-0.0503

row,Sequence,PBM E-score
1,TACAACTA,0.171
2,AGCAGCAC,-0.131
3,ATGAAACA,-0.0699
4,CTGTCGTC,-0.0022
5,CTGCTGAA,-0.201
6,AGGGGTCG,0.0876
7,GACCAGCC,-0.0527
8,AACACTAT,0.252
9,AGTGTCAC,-0.0785
10,AGAGTAAG,0.132
11,CCGTGCAA,0.0358
12,GGATGACC,-0.0893
13,TGAGACAA,-0.00496
14,AAGGCACT,-0.111
15,CCTTGAAA,0.0296
16,GAACCATA,0.0868
17,ATGCGGTG,-0.162
18,ATAAGCAA,0.149
19,TGAGTACA,0.13

# Given as tab-separated lines: part of the list above.
row	Sequence	PBM E-score
13	TGAGACAA	-0.00496
14	AAGGCACT	-0.111
15	CCTTGAAA	0.0296
16	GAACCATA	0.0868
17	ATGCGGTG	-0.162

# 5 entries drawn at random from those above:
row,Sequence,PBM E-score
19,TGAGTACA,0.13
12,GGATGACC,-0.0893
10,AGAGTAAG,0.132
6,AGGGGTCG,0.0876
13,TGAGACAA,-0.00496
